{
  "source": "patent US20160088853A1",
  "about": "“Ultraviolet Disinfection of Produce, Liquids and Surfaces” (DREXEL UNIVERSITY, priority 2013, published 2016)",
  "description": "In this example, fluorescein dye was used to detect the presence of free radicals, since interactions of oxidizing free radicals with fluorescein quench the fluorescence signal intensity. A fluorescein dye solution (4 μg/L) containing 0.4% (w/v) fructose and a fluorescein dye solution (4 μg/L) without fructose (control) were exposed to UV radiation at wavelength of 254 nm.\nA batch-UV processing unit (Spectronics Spectrolinker XL-1500 UV Crosslinker, Westbury, N.Y.) was used for Examples 5-10. […] Fluorescence intensity measurement noise was minimized by allowing the lamps to warm up for at least 15 minutes prior to taking measurements.\nThe test fluorescein solution with approximately 1 μM fluorescein was prepared in deionized water (pH 6.3) or 100 mM buffer at pH 6. […] To measure the fluorescence intensity of the solution, at each time interval, 100 μl of the sample was pipetted from the petri dish into a well of a 96-well plate optimized for fluorescence measurement. Fluorescence was measured in a Gemini XPS fluorescence micro-plate reader (Molecular Devices, Sunnyvale, Calif.) with excitation and emission wavelengths of 485 nm and 510 nm, respectively. All the fluorescence values were normalized using Eq. (1):\nwhere I0=fluorescence intensity at time t=0 minutes and It=fluorescence intensity after ‘t’ minutes of UV exposure.",
  "data": [
    {"compound": "O=C(CO)[C@@H](O)[C@H](O)[C@H](O)CO", "note": "[fructose]", "values": [
      {"measurement": "relative oxidation potential compared to hydrogen peroxide", "setting": "100 mM fructose vs 294 μM hydrogen peroxide, AUC and molarity, UV", "result": "approximately 0.0025"}
    ]},
    {"compound": "c1ccoc1", "note": "[furan, reference compound]", "values": [
      {"measurement": "effect on relative fluorescence intensity", "setting": "132 μM furan, 12 minutes of UV exposure", "result": "no effect"}
    ]}
  ]
}
